Reference: PMC6120190, “Identification of two distinct peptide-binding pockets in the SH3 domain of human mixed-lineage kinase 3” (The Journal of Biological Chemistry, 2018)

Tested on: SH3 domain of MLK3
Assay: X-ray crystal structure of MLK3 SH3-peptide fusion
Set-up: species or system human
Details: for binding site on the SH3 domain of MLK3: crystal structures: MIP 1.2 Å (PDB 5K26), NS5A APPIPPPR 1.5 Å (PDB 6AQB)

Question: What does the source list for `CC[C@H](C)[C@H](NC(=O)[C@H](C)N)C(=O)N[C@@H](CCCNC(=N)N)C(=O)N[C@H](C(=O)N[C@@H](CC(N)=O)C(=O)N1CCC[C@H]1C(=O)N[C@@H](CC(N)=O)C(=O)NCC(=O)N[C@H](C(=O)N[C@@H](Cc1c[nH]c2ccccc12)C(=O)N[C@@H](CO)C(=O)N[C@@H](CCCNC(=N)N)C(=O)N[C@@H](CCC(N)=O)C(=O)N[C@@H](C)C(=O)N[C@@H](CCC(=O)O)C(=O)N[C@H](C(=O)N[C@H](C(=O)N[C@@H](CCC(=O)O)C(=O)N[C@@H](CO)C(=O)O)C(C)C)[C@@H](C)O)[C@@H](C)O)[C@@H](C)CC` [MIP]?
Answer: r.m.s.d. of SH3 structure upon binding (MIP-bound vs apo MLK3 SH3, over 40 residues): 0.41; binding site on the SH3 domain of MLK3: binds in a pocket formed between the n-Src loop and β-strands 2–4

Question: How did the “binding site on the SH3 domain of MLK3” value turn out when “KKAPTPPPRRRRGGGK [NS5A peptide, reference compound]” was run?
Answer: interacts with the canonical polyproline-binding site

No end group written: not given here.
